# In PubChem BioAssay AID624297 (National Center for Advancing Translational Sciences (NCATS), 2012):
# The whole screen tested about 340,000 compounds, of which about 6,200 (1.8%) were called active. Inconclusive means that the source gave no clear call. Such entries were picked first, then a sample of the others. Calls come from the whole dose curve; as a rule, active = well fitted activation curve with a large enough effect; inconclusive = small, poorly fitted or top-dose-only effect; inactive = no such curve, though single readings can be large or run the other way. Potencies of inconclusive entries are doubtful fits and often do not repeat.
# Test: A quantitative high throughput screen for small molecules that induce DNA re-replication in SW480 colon adenocarcinoma cells. For re-replication activation: % of control where 0% means no effect. Note: nearly all actives have a fitted effect of over 55% in size.
# Conditions: Hoechst DNA content imaging, 48 h; re-replication activation: at 46.1 µM (top of the series)
# Outline: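 DNA re-replication was detected as more nuclei of elevated Hoechst intensity after 48 hr exposure to compound (23 nL pinned per well of 250 cells).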
# Potency is the fitted concentration of half-maximal effect.
Structure (SMILES),Potency,re-replication activation
Cn1c(=O)c2c(nc(CN3CCN(Cc4ccccc4)CC3)n2Cc2ccc(Cl)cc2)n(C)c1=O,"inconclusive: 18.4 µM [activator, single point]",
O=[N+]([O-])c1ccc(/C=N/NC(=S)Nc2ccc(Cl)cc2Cl)s1,active: 20.6 µM,
Brc1ccc(CN2CCN(Cc3c[nH]c4ccccc34)CC2)cc1,"inconclusive: 20.6 µM [activator, partial curve, poor fit]",
Cc1onc(-c2ccccc2)c1C(=O)OCCOc1cccc(Cl)c1,active: 6.51 µM,
COCCCNCCOCCOc1ccc(Cl)cc1C(C)(C)C,"inconclusive: 23.1 µM [activator, single point]",
COc1ccc(/C=N/NC(=O)c2cccc([N+](=O)[O-])c2)cc1OC(=O)c1ccc(C)cc1,"inconclusive: 18.4 µM [activator, single point]",
COc1cc(-c2cc(=O)c3c(C)cc(O)cc3o2)cc(OC)c1OC,,inactive: -1.24%
CCOCCCNC(=O)c1cc(-c2cccnc2)nc2ccc(S(=O)(=O)N3CCC(C)CC3)cc12,,inactive: -0.103%
CN(Cc1ccc(N(C)C)cc1)C(=O)c1cc2ccccc2o1,,inactive: -0.0923%
CCCN1CCN(C(=O)C2CCN(c3nnc(C)c4c(C)n(-c5ccc(C)cc5)nc34)CC2)CC1,,inactive: 4.72%
CC1CCCN(CCOCCOc2ccc(Br)cc2Cl)C1 (stereo unspecified),"inconclusive: 18.4 µM [activator, partial curve, poor fit]",
COC(=O)c1cccc(Cn2c(Cl)c(/C=N/NC(=O)c3ccco3)sc2=O)c1,"inconclusive: 23.1 µM [activator, single point]",
COc1ccc(CCC(=O)NCc2ccco2)cc1,"inconclusive: 18.4 µM [activator, single point]",
O=S1(=O)CCOC[C@H](Cc2ccccc2)N1Cc1cccc(C(F)(F)F)c1,"inconclusive: 0.0041 µM [activator, full curve, poor fit]",
CCCc1c(C(=O)N/N=C/c2ccccc2C(F)(F)F)nnn1-c1nonc1N,,inactive: -0.757%
Cc1ccnc(N2CCC(C(=O)NCc3ccc4c(c3)OCO4)CC2)n1,,inactive: -6.05%
Cc1ccc(OC[C@H](O)[C@H](C)NC(C)C)c2c1CCC2,"inconclusive: 0.146 µM [activator, single point]",
COc1ccccc1N1CCN(C(=O)c2ccc3[nH]c(C)c(C)c3c2)CC1,active: 2.31 µM,
CCCCOc1ccc(C(=O)Nc2ccc(N3CCN(C(=O)C(C)C)CC3)cc2)cc1,,inactive: 1.5%
Cn1cc(CC(=O)NCCN2CCOCC2)c2ccccc21,active: 23.1 µM,
Cc1ccc(C(=O)N2NC(c3ccccc3F)C3C(=O)N(c4cccc(C)c4)C(=O)C32)cc1 (stereo unspecified),"inconclusive: 0.0046 µM [activator, full curve, poor fit]",
O=C(NC1CC1)c1ccc(Cl)c(S(=O)(=O)N2CCOCC2)c1,,inactive: -2.56%
CCOC(=O)C(=CNc1ccccc1Cl)C(=O)OCC,,inactive: -2.87%
COC(=O)c1ccccc1NC(=O)CN1CCc2ccccc2C1,"inconclusive: 6.51 µM [activator, single point]",

Structure (SMILES),Potency,re-replication activation
Cc1ccc(Oc2ccccc2/C=N/O)cc1,"inconclusive: 23.1 µM [activator, single point]",
COc1ccc(CSCCc2n[nH]c(=S)n2-c2ccccc2)cc1,,inactive: -1.77%
COc1ccc(N2C(=O)CC2(/C=C/c2ccccc2OC)C(=O)NC2CCCC2)cc1 (stereo unspecified),,inactive: 0.588%
COC(=O)[C@@]1(Cc2ccc(F)cc2)[C@H]2c3cc(C(=O)N(C)C)n(Cc4ccccc4)c3C[C@H]2CN1C(=O)c1ccccc1,"inconclusive: 18.4 µM [activator, single point]",
CCC(=O)N1CCc2cc(S(=O)(=O)CCC(=O)NCc3ccc(C)cc3)ccc21,"inconclusive: 0.103 µM [activator, full curve, poor fit]",
CCOC(=O)C1=C(COC(=O)[C@@H](NC(=O)c2cccc(C)c2)C(C)C)NC(=O)NC1C (stereo partly specified),,inactive: -1.97%
COc1cc(C2C=C(c3cccs3)Nc3ncnn32)cc(OC)c1OC (stereo unspecified),"inconclusive: 0.92 µM [activator, full curve, poor fit]",
COc1ccc(C(C(=O)NCCC(C)C)N(CCO)C(=O)c2snc(C(N)=O)c2N)cc1 (stereo unspecified),,inactive: 35.7%
COc1ccc(S(=O)(=O)N2CCOc3ccccc32)cc1,active: 5.8 µM,
O=C(/C=C/c1cccc(Br)c1)N1CCN(c2cccc(C(F)(F)F)c2)CC1,"inconclusive: 29.1 µM [activator, single point]",
COc1cccc(NC(=O)C2CCC(CNS(=O)(=O)c3cccs3)CC2)c1 (stereo unspecified),active: 20.6 µM,
COc1ccccc1-c1cc(C(=O)Nc2ccc(F)cc2F)no1,,inactive: 21.8%
O=C(OCCOc1cccc(Cl)c1)c1cc(S(=O)(=O)N2CCCCC2)ccc1N1CCOCC1,"inconclusive: 7.31 µM [activator, partial curve, poor fit]",
O=C(Nc1ccc(OC(=O)c2ccccc2)c(-c2nc3ccccc3s2)c1)c1ccccc1,"inconclusive: 29.1 µM [activator, single point]",
O=C(NCc1c(O)ccc2ccccc12)c1ccccc1,"inconclusive: 29.1 µM [activator, single point]",
O=C(CSC1=Nc2ccccc2C2=NC(c3ccccc3)C(=O)N12)NC1CCCCC1 (stereo unspecified),,inactive: -1.01%
O=C(c1ccco1)N1CCN(C(=O)C2CC2)CC1,"inconclusive: 29.1 µM [activator, partial curve, poor fit]",
CNc1c2cccc(C)c2nc2c(C(=O)NCCN(C)C)cccc12,"inconclusive: 0.461 µM [activator, full curve, poor fit]",
CCCCc1nc(NCCNC(=O)c2ccccc2)c(C#N)c2c1CSC(C)(C)C2,"inconclusive: 25.9 µM [activator, partial curve, poor fit]",
C=CCn1nc([N+](=O)[O-])nc1Sc1cccc2cccnc12,active: 3.26 µM,
CC(C)CN1C(=O)C(=O)N(CC(=O)N(C)CC(=O)Nc2ccc(Cl)c(C(F)(F)F)c2)C1=O,"inconclusive: 29.1 µM [activator, single point]",
O=c1ncn(-c2cccc([N+](=O)[O-])c2)c2ccccc12,"inconclusive: 0.164 µM [activator, full curve, poor fit]",
Cc1ccc(N(C)S(=O)(=O)c2cccc(C(=O)Nc3nc4ccccc4[nH]3)c2)cc1,"inconclusive: 16.4 µM [activator, single point]",
CCc1ccc(NC(=O)Cn2nnc(C(=O)NCc3ccc4c(c3)OCO4)c2N)cc1,"inconclusive: 32.6 µM [activator, partial curve, poor fit]",

# Exported bar-delimited: part of the list above
Structure (SMILES) | Potency | re-replication activation
O=C(/C=C/c1cccc(Br)c1)N1CCN(c2cccc(C(F)(F)F)c2)CC1 | inconclusive: 29.1 µM [activator, single point] | 
COc1cccc(NC(=O)C2CCC(CNS(=O)(=O)c3cccs3)CC2)c1 (stereo unspecified) | active: 20.6 µM | 

# (next part)

Structure (SMILES),Potency,re-replication activation
CCN(CC)C1CCN(C(=O)c2ccc(OC3CCN(CCc4ccccc4)CC3)cc2)C1 (stereo unspecified),"inconclusive: 25.9 µM [activator, single point]",
COc1ccc(-c2c[n+]3c(n2-c2ccc(C)cc2)CCCCC3)cc1,,inactive: 11.2%
COc1ccccc1N(C(=O)c1snc(C(N)=O)c1N)C(C(=O)NC1CCCC1)c1ccc2ncccc2c1 (stereo unspecified),"inconclusive: 18.4 µM [activator, single point]",
CCNC(=O)C(Sc1ccccc1)c1ccccc1 (stereo unspecified),,inactive: -5.31%
NC(=S)N/N=C/c1ccc(/C=N/NC(N)=S)cc1,active: 18.4 µM,
CC(C(=O)Nc1ccccc1)C(=O)Nc1ccccc1,"inconclusive: 29.1 µM [activator, partial curve, poor fit]",
O=c1cnnc(SCc2ccc([N+](=O)[O-])cc2)[nH]1,"inconclusive: 2.59 µM [activator, partial curve]",
CN(C(=O)CCl)C1CCCc2ccccc21 (stereo unspecified),active: 2.31 µM,
Cc1ccc(N(C(=O)C(F)(F)F)C(C(=O)NC2CCCCC2)c2cccs2)cc1C (stereo unspecified),,inactive: -6.72%
Oc1ccc(N=Nc2c(O)ccc3ccccc23)cc1,,inactive: 1.29%
CCC(C)N(C)Cc1cccc(C2(O)CCN(S(=O)(=O)c3ccc(F)c(C)c3)CC2)c1 (stereo unspecified),"inconclusive: 20.6 µM [activator, single point]",
CCOC(=O)C(C)(C)N(Cc1ccc(C)cc1)S(=O)(=O)c1ccc(Cl)c([N+](=O)[O-])c1,"inconclusive: 29.1 µM [activator, single point]",
COc1cc(NC(=O)COc2ccc(Cl)cc2)ccc1-c1cc2ccccc2oc1=O,"inconclusive: 29.1 µM [activator, single point]",
Cc1ccc(CN(C)C(=O)c2cccc(S(=O)(=O)N3CCN(c4ccccc4)CC3)c2)cc1,,inactive: 9.26%
CC(=O)c1ccc(N2CCN(S(=O)(=O)c3ccc4c(c3)CC(C)N4C(=O)C3CC3)CC2)cc1 (stereo unspecified),"inconclusive: 0.231 µM [activator, partial curve, poor fit]",
CCOC(=O)Nc1ccc2c(c1)N(C(=O)CCN(C)C)c1ccccc1S2,,inactive: 13.2%
O=C(OC1C2CCC1C1CN(CCc3ccccc3)CC12)c1ccccc1 (stereo unspecified),"inconclusive: 1.3 µM [activator, full curve, poor fit]",
CN(C)c1ccc(Nc2c3c4c(cccc4n(C)c2=O)C(=O)c2ccccc2-3)cc1,active: 7.31 µM,
CN1C(=O)C(Cl)(Cl)C(=O)c2ccccc21,"inconclusive: 29.1 µM [activator, single point]",
CCOc1cc(NC(=O)c2ccccn2)c(OCC)cc1NC(=O)c1ccccc1,"inconclusive: 29.1 µM [activator, single point]",
CCCC(=O)NC(=S)Nc1c(C)cc(Br)cc1C,,inactive: 15.2%
CN1CCN(c2ccc(NC(=O)c3cccs3)cc2)CC1,"inconclusive: 1.3 µM [activator, full curve, poor fit]",
COc1ccccc1NC(=O)CSc1ccc2nnc(CCNC(=O)c3ccccc3)n2n1,"inconclusive: 25.9 µM [activator, single point]",

# In a second layout: entries from further up.
Structure (SMILES)	Potency	re-replication activation
CN(C(=O)CCl)C1CCCc2ccccc21 (stereo unspecified)	active: 2.31 µM	
Cc1ccc(N(C(=O)C(F)(F)F)C(C(=O)NC2CCCCC2)c2cccs2)cc1C (stereo unspecified)		inactive: -6.72%
